Each structure is given as a SMILES string. The list shows a part of the results. Shown are side measurements of this screen, not its main read-out; they come without a call. Compounds called inactive in the main read-out are mostly missing here. Potencies come from curve fits of mixed quality, noted in brackets.

What is called AC50 is the midpoint of the concentration-response curve, whichever way the signal moves.

A short description of this test: IkB Signaling. The settings on record: ABC-DLBCL IkBa-CBG/CBR dual luciferase ratio (green luciferase fused to IkBa over red control in OCI-Ly3 lymphoma cells), 4 h; measured here: control luc red channel unless noted. In short, it runs like this: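 Curves were fitted separately to fusion (green), unfused (red) and ratio luminescence, then classed by r2, magnitude and activity. Cells: OCI-Ly3, 4 h compound plus doxycycline at 37C; 10 uM MG-132 defined full response.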
For the molecule `CCCCCNC(=O)c1cc2c(=O)n3ccccc3nc2n1C`, the AC50 is 25.1 µM [falling, partial curve].
As to `CN(C)C(=O)c1ccc(NC(=O)Cn2nc(-c3ccccc3)c3ccccc3c2=O)cc1`, the concentration at half-maximal activity (AC50) is 10 µM [falling, partial curve].
Regarding `CCOC(=O)c1cccc(NS(=O)(=O)c2cc(-c3cnc(C)o3)ccc2OC)c1`, the AC50 was 20 µM [falling, partial curve, poor fit].
For `CCOC(=O)c1c(NC(=O)COc2cc(C)ccc2C(C)C)sc2c1CCCC2` the value was 39.8 µM [falling, single point].
For `CC(C)(C)Nc1ncnc2c1cnn2-c1ccccc1` the value was 20 µM [falling, single point]; for `Cc1cccc(NC(=O)c2c(NC(=O)c3cccs3)sc3c2CCC(C)C3)c1` (stereo not drawn), 2.51 µM [falling, full curve].
As for `CCOC(=O)C1=C(C)N=C(/N=C/N(C)C)SC1c1ccccc1` (stereo not drawn), the AC50 is 15.8 µM [falling, partial curve].
As for `Cc1cnc(NC(=O)CSc2nnc(-c3ccccc3)o2)s1`, the AC50 was 2.51 µM [falling, partial curve].
Take `CC1=C(c2ccc(C(C)C)cc2)S(=O)(=O)N=C1N1CCN(c2ccc(F)cc2)CC1`: the AC50 was 3.98 µM [rising, single point].
For `COc1ccccc1C(=O)n1nc(-c2cccnc2)nc1NCc1ccccc1` the value was 39.8 µM [falling, single point].
For `Cc1ccc(OCC(=O)Nc2nnc(SCc3cc(=O)c4ccccc4[nH]3)s2)cc1C` the value was 15.8 µM [falling, partial curve]; for `Cc1ccc(Cl)cc1NC(=O)c1ccc(NC(=O)N2CCSc3ncccc32)cc1`, 39.8 µM [falling, single point]; for `COc1cc(NC(=O)c2cc3sccc3n2C)cc(OC)c1`, 12.6 µM [falling, single point].
Next, `CCOc1ccc(Nc2c(S(=O)(=O)c3ccc(C)cc3)cnc3cc(OC)c(OC)cc23)cc1`: 0.316 µM [falling, full curve].
In the case of `COc1ccc(CCNC(=O)c2ccc3c(c2)sc2nc(-c4ccc(C)cc4)cn23)cc1OC`, the AC50 was 20 µM [falling, single point].
Regarding `COC(=O)c1ccc(COC(=O)c2[nH]c(C)c(C(C)=O)c2C)o1`, the AC50 was 25.1 µM [falling, partial curve].
Consider `CC(=O)Nc1cccc(NC(=O)c2cc3ccccc3o2)c1`, for which the half-maximal activity concentration (AC50) is 5.01 µM [falling, partial curve].
With `Cc1ccc(NC(=O)C2CCN(S(=O)(=O)c3ccc4c(c3)CCCC(=O)N4)CC2)c(Cl)c1`, the AC50 is 39.8 µM [falling, single point].
Regarding `O=C(NCc1ccccc1Cl)c1ccc2c(c1)nnn2C1CCCC1`, the AC50 is 0.0316 µM [rising, full curve, poor fit].
Take `O=C(NC1(C(F)(F)F)C(=O)Nc2c1c(=O)[nH]c(=O)n2CCc1ccccc1)c1ccc(Cl)cc1` (stereo not drawn): the AC50 is 7.94 µM [rising, single point] [measured here: IkB-luc green channel].
For `COc1ccc2c(c1)c1c(c(=O)n(Cc3ccccc3)c(=O)n1CC(=O)Nc1cc(C)cc(C)c1)n2C` the value was 0.0794 µM [rising, full curve, poor fit]; for `Cc1cc(C)cc(NC(=O)CSc2oc(-c3ccco3)nc2S(=O)(=O)c2ccccc2)c1`, 12.6 µM [falling, partial curve]; for `Cc1cccc(N2CCN(C(=O)c3ccc4c(c3)c(C)c(C)n4C)CC2)c1C`, 25.1 µM [falling, partial curve].
On to `Cc1ccc(Cl)cc1NC(=O)CCCn1c(=O)c2cccn2c2ccccc21`, for which the AC50 was 15.8 µM [falling, partial curve].
`Cc1ccc(CN2CCSc3ccc(C(=O)Nc4cc(C)cc(C)c4)cc32)cc1`: the AC50 was 15.8 µM [falling, partial curve].
As for `CN1CCN(S(=O)(=O)c2ccc(NC(=O)c3csc4ccccc34)cc2)CC1`, the AC50 was 12.6 µM [falling, partial curve].
`COc1cc2ncnc(Nc3cccc(Cl)c3)c2cc1OC`: the concentration at half-maximal activity (AC50) is 6.31 µM [falling, partial curve, poor fit] [measured here: IkB-luc green channel].
As to `COc1ccccc1NC(=O)N(Cc1ccco1)Cc1cc2cccc(C)c2[nH]c1=O`, the concentration at half-maximal activity (AC50) was 10 µM [falling, partial curve].
With `COCCn1c(C)cc(O)c(C(c2ccccc2)N2CCN(CCO)CC2)c1=O` (stereo not drawn), the AC50 was 0.0316 µM [falling, full curve, poor fit].
For `C=CCc1c(C)nc2nc(SCC(=O)Nc3cccc(Cl)c3)nn2c1C` the value was 12.6 µM [falling, partial curve]; for `N[C@H](CCC(=O)N[C@H](CSN=O)C(=O)NCC(=O)O)C(=O)O`, 12.6 µM [falling, partial curve].
On to `Cc1nc2ccc(S(=O)(=O)N(C)CC(=O)N3CCc4ccccc4C3)cc2s1`, for which the AC50 is 31.6 µM [falling, single point].
Take `Cc1cccc(-n2nnc(C(=O)N3CCc4ccccc4C3)c2N)c1`: the AC50 is 25.1 µM [falling, partial curve].
Regarding `CC(C)CN(CC(C)C)c1nc(-c2ccc(Cl)cc2)nc2ccccc12`, the AC50 was 25.1 µM [falling, partial curve].
Turning to `Cc1c(Cl)cccc1NC(=O)c1ccc2c(c1)nnn2C1CCCC1`, the half-maximal activity concentration (AC50) was 0.126 µM [rising, full curve, poor fit].
Regarding `CCOC(=O)c1c(C)oc2nc(C)nc(N(CC(C)C)CC(C)C)c12`, the AC50 is 12.6 µM [falling, partial curve].
As for `O=C(CCS(=O)(=O)c1ccccc1)N(Cc1cccnc1)c1nc2c(Cl)cccc2s1`, the concentration at half-maximal activity (AC50) was 15.8 µM [falling, single point].
On to `CCc1ccc(NC(=O)c2ccc3c(=O)n4nc(Nc5ccccc5C)sc4nc3c2)cc1`, for which the AC50 was 5.01 µM [falling, partial curve].
For `O=C(O)c1ccccc1NS(=O)(=O)c1ccc2c3c(cccc13)C(=O)N2` the value was 12.6 µM [falling, partial curve]; for `O=C(c1ccc(Cn2c(=O)[nH]c3ccccc3c2=O)cc1)N1CCN(c2ccc(F)cc2)CC1`, 15.8 µM [falling, partial curve]; for `Clc1ccc(Nc2c(-c3cccs3)nc3ccc(Cl)cn23)cc1`, 0.501 µM [rising, full curve, poor fit].
As for `COc1ccc(-c2noc(N(C)CC(=O)Nc3cccc(C(F)(F)F)c3)n2)cc1`, the AC50 is 12.6 µM [falling, partial curve].
For `Cc1ccc(NC(=O)c2cc(NC(=O)c3ccco3)ccc2N2CCCCC2)cc1`, the AC50 was 0.0398 µM [falling, full curve].
`CC(=O)c1cccc(NC(=O)CSc2nnc3ccc(-c4ccc(Cl)cc4)nn23)c1`: the AC50 is 0.501 µM [rising, full curve, poor fit].
Take `Cc1ccc(Cl)cc1NC(=O)c1sc2nc(-c3ccccc3)cn2c1C`: the AC50 is 2.51 µM [rising, partial curve].
`Clc1c(CSc2nc3ccccc3o2)nc2sccn12`: the AC50 was 0.631 µM [rising, partial curve].
On to `COc1ccccc1CNS(=O)(=O)c1ccc(-c2cc(C(F)(F)F)on2)s1`, for which the AC50 was 31.6 µM [falling, partial curve].
Next, `COc1ccc(C2=C(C(C)=O)Sc3nnc(-c4ccc(C)cc4)n3N2C(C)=O)cc1OC`: 3.98 µM [falling, partial curve].
For `COc1ccc(OC)c(C2c3c(-c4ccc(Br)cc4)n[nH]c3C(=O)N2c2ccc(Cl)cc2)c1` (stereo not drawn), the AC50 is 3.98 µM [falling, single point].
For the molecule `CCOC(=O)c1c(Nc2cccc(C(=O)OC)c2)nnc(-c2ccccc2)c1-c1ccccc1`, the AC50 is 7.94 µM [falling, partial curve].
Turning to `O=C(Cc1ccccc1)N1CCC(c2nc(-c3ccc(F)cc3)no2)CC1`, the AC50 was 15.8 µM [falling, partial curve].
Turning to `Cc1ccc(NC2c3ncccc3C(=O)N2C2CCCCC2)cc1C` (stereo not drawn), the AC50 is 20 µM [falling, partial curve].
Regarding `CCOc1ccccc1-c1noc(CSc2nnc(-c3ccccc3)n2-c2cccc(C)c2)n1`, the AC50 was 15.8 µM [falling, partial curve].
Next, `c1ccc(CC2CCN(Cc3nc(-c4ccccc4)no3)CC2)cc1`: 12.6 µM [falling, partial curve, poor fit]; `COc1ccccc1C(=O)Nc1ccc(NC(=O)c2cccs2)cc1`: 39.8 µM [falling, single point].
Turning to `COc1ccc(Nc2cc(C(=O)NCCCN(C)Cc3ccccc3)c3ccccc3n2)c(OC)c1`, the concentration at half-maximal activity (AC50) is 12.6 µM [falling, partial curve].
For `COc1cc(-c2nc3ccccn3c2Nc2ccccc2C)ccc1O` the value was 15.8 µM [falling, partial curve].
On to `CCc1ccc(CN2C(=O)c3ccccc3C2C(=O)NC2CCCCCC2)cc1` (stereo not drawn), for which the AC50 is 20 µM [falling, partial curve].
Next, `CC(C)(C)C(=O)Nc1ccc(-c2nc3ccccc3s2)cc1`: 0.0501 µM [rising, full curve].
Next, `COc1ccccc1OCc1nc2ccccc2[nH]1`: 12.6 µM [falling, partial curve]; `CCc1ccccc1Nc1nn2c(=O)c3ccc(C(=O)NC4CCC(C)CC4)cc3nc2s1` (stereo not drawn): 25.1 µM [falling, single point].
On to `CCOc1cc(C(=O)N(Cc2nc(-c3ccc(C)cc3)no2)C(C)C)cc(OCC)c1OCC`, for which the AC50 was 20 µM [falling, partial curve].
Take `CCc1cnc2c(c1SCc1c(F)cccc1Cl)c(=O)n(C)c(=O)n2C`: the AC50 was 12.6 µM [falling, partial curve].

These data come from PubChem BioAssay AID445 (National Center for Advancing Translational Sciences (NCATS), 2006).
